Source: US11319341B2, “Immune-stimulating soluble doxorubicin-conjugated complex” (Yafei (Shanghai) Biopharmaceutical Co., Ltd., priority 2016, dated 2022)
Not every detail of the peptide structures is certain; ends, links or a residue may be inferred. Residues, ends and D or L forms follow the SMILES beside them. *: point of attachment. Doxorubicin(3'-N) = COc1cccc2c1C(=O)c1c(O)c3c(c(O)c1C2=O)C[C@@](O)(C(=O)CO)C[C@@H]3O[C@H]1C[C@H](N*)[C@H](O)[C@H](C)O1; Propanoyl(3-maleimido) = O=C1C=CC(=O)N1CCC(=O)*; PEG3 = NCCOCCOCCOCCC(=O)O; PEG2 = NCCOCCOCCC(=O)O

Key:
[1] = tested on: acidized human breast cancer (MDA-MB435) tumor tissue homogenates; assay: Activation efficiency of the linker by tumor tissue homogenates (HPLC); type: biochemical; conditions: 37° C., MDA-MB435 tumor tissue homogenates pH6.0, compound 1 mg/ml
Method: When the C selected AAN, The activation of different S-C-A linker and control linker was evaluated in the activation assay, The S-C-A conjugate was used to dissolve and they were diluted for ten times to a concentration of 0.1 mM/ml. At 37° C., sample compounds were added into 100 μg acidized human breast cancer (MDA-MB435) tumor tissue homogenates (pH6.0) in a concentration of 1 mg/ml. The enzyme in tumor tissue homogenates could release and detected by HPLC, thereby comparing the activation efficiency of the linker by the tumor tissue.

[2] = tested on: CT26 tumor cells; assay: CT26 tumor immune model: inhibition of tumor; type: in vivo; conditions: CT26 subcutaneous tumor, BALB/c mice, compounds 18 μmol/kg, mouse PD-1 antibody 5 mg/kg
[3] = tested on: Human liver cancer HepG2 cells; assay: Efficacy on human liver cancer HepG2 cells in nude mice; type: in vivo; conditions: 54 umol/kg IV once weekly for four weeks
Source text: Test purpose: to investigate the anti-tumor efficacy of some compounds of the invention in mice model for tumor treatment.
Test drug: QHL-095, QHL-008, QHL-086, QHL-116, QHL-119, QHL-092, QHL-006, QHL-089, QHL-005, QHL-007, QHL-096, QHL-012, QHL-087, QHL-117, QHL-120, QHL-093, QHL-010, QHL-090, QHL-009, QHL-011 injections and control group injection, diluted to corresponding concentrations by physiological saline when testing.
1. Animal: nude mice of 6-8 weeks old, all female.
1) Human liver cancer HepG2 cells were purchased from American type culture collection (ATCC) and identified according the specification provided by ATCC.
2) Production of tumor. […] Mice were randomly grouped after the tumor reached at least 100 mm^3. Then treatment began and the day on which the treatment began was day 1.
According to the clinical application of QHL-095, QHL-008, QHL-086, QHL-116, QHL-119, QHL-092, QHL-006, QHL-089, QHL-005, QHL-007, QHL-096, QHL-012, QHL-087, QHL-117, QHL-120, QHL-093, QHL-010, QHL-090, QHL-009, QHL-011, drugs were intravenously injected (IV). Compounds and control groups were administered in a dose of 54 umol/kg. The control group was administered by physiological saline. Drugs were administered once weekly for four weeks.

[4] = tested on: tumor CD8+ T cells; assay: CT26 tumor immune model: tumor CD8+ T cells (CD8 positive in CD45 positive cells, flow cytometry); type: in vivo, BALB/c mice; conditions: ratio of CD8 positive cells in CD45 positive cells in tumor, compounds 18 μmol/kg, PD-1 antibody 5 mg/kg

Structure (SMILES) | Activation (%) ([1]; Table 4-2) | Activation (%) ([1]; Table 4-1) | inhibitory rate on tumor % Day 18 ([2]; Day 18 as printed) | Size of tumor (mm^3) Day 28 ([2]; Day 28) | Size of tumor (mm^3) Day 28 [3] | inhibitory rate on tumor Day 28 [3] | CD8:CD45 (%) [4]
COc1cccc2c1C(=O)c1c(O)c3c(c(O)c1C2=O)C[C@@](O)(C(=O)CO)C[C@@H]3O[C@H]1C[C@H](NC(=O)[C@H](CC(C)C)NC(=O)[C@H](CC(N)=O)NC(=O)[C@H](C)NC(=O)[C@H](C)NC(=O)[C@H](CCC(=O)O)NC(=O)CCOCCOCCNC(=O)CCN2C(=O)C=CC2=O)[C@H](O)[C@H](C)O1 [QHL-039] ({Propanoyl(3-maleimido)-PEG2}-EAANL-{Doxorubicin(3'-N)}) | 85.4% | – | – | – | – | – | –
COc1cccc2c1C(=O)c1c(O)c3c(c(O)c1C2=O)C[C@@](O)(C(=O)CO)C[C@@H]3O[C@H]1C[C@H](NC(=O)[C@H](CC(C)C)NC(=O)[C@H](CC(N)=O)NC(=O)[C@H](C)NC(=O)[C@H](C)NC(=O)[C@H](CCC(=O)O)NC(=O)CCOCCOCCOCCNC(=O)CCN2C(=O)C=CC2=O)[C@H](O)[C@H](C)O1 [QHL-045] ({Propanoyl(3-maleimido)-PEG3}-EAANL-{Doxorubicin(3'-N)}) | 84.6% | – | – | – | – | – | –
COc1cccc2c1C(=O)c1c(O)c3c(c(O)c1C2=O)C[C@@](O)(C(=O)CO)C[C@@H]3O[C@H]1C[C@H](NC(=O)[C@H](CC(C)C)NC(=O)[C@H](CC(N)=O)NC(=O)[C@H](C)NC(=O)[C@H](C)NC(=O)CCOCCOCCOCCNC(=O)CCN2C(=O)C=CC2=O)[C@H](O)[C@H](C)O1 [QHL-090] ({Propanoyl(3-maleimido)-PEG3}-AANL-{Doxorubicin(3'-N)}) | 93.4% | 93.4% | 82.2% | 335.7 ± 257.8 mm^3 | 0 mm^3 | 100% | 15.2%
